The campaign covered roughly 330,000 compounds. About 7,700 (2.3%) were called active. The inconclusive results got no clear call from the source; some entries with a clear call stand among them for comparison. The call rests on the fitted dose curve; in most records, active means well fitted inhibition curve with a large enough effect; inconclusive means small, poorly fitted or top-dose-only effect, or effect the other way; inactive means flat fitted curve, though single readings scatter. Potencies beside an inconclusive call are fits to weak or partial responses and may not hold up.
Assay: qHTS screen for small molecules that inhibit ELG1-dependent DNA repair in human embryonic kidney (HEK293T) cells expressing luciferase-tagged ELG1; further: nearly all actives have a fitted effect of over 55% in size
Conditions: HEK293T ELG1-luciferase reporter, luminescence, 16 h, DNA damage induced by 5-fluorouridine; activity change, negative = inhibition: at 46.1 µM (top of the series)
Procedure, shortened: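 Step one: seed 2,000 cells per well. Step two: pin-transfer compound or DMSO alongside 5-fluorouridine. Step three: incubate 16 hr, 37 °C, 5% CO2. Step four: add ONE-Glo, wait 30 min, read luminescence.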
On the % scale 0 is the no-effect control and ±100 the full control effect; potency means the concentration at half of the fitted maximal effect.

SMILES | Potency | activity change, negative = inhibition
O=C(O)CCCN1C(=O)c2cccc3cccc(c23)C1=O | inconclusive: 2.06 µM [inhibitor, partial curve, poor fit] | –
O=C1Nc2ccc(Cl)cc2C12Nc1ccccc1-c1nnc(SCc3ccccc3F)nc1O2 (stereo not drawn) | – | inactive: 6.41%
Cc1cc(OCc2cccc(Cl)c2)c(C)cc1CN1CCOCC1 | inconclusive: 29.1 µM [activator, single point] | –
CC(C)(C)OC(=O)N1CCC(NC(=O)c2[nH]cnc2C(=O)Nc2ccccc2)CC1 | inconclusive: 25.9 µM [inhibitor, single point] | –
COc1cc(OC)cc(-c2nc3ccccc3s2)c1 | inconclusive: 11.2 µM [activator, partial curve] | –
Cc1c(NC(=O)COC(=O)c2cc(-c3cccc4ccccc34)nc3ccccc23)c(=O)n(-c2ccccc2)n1C | inconclusive: 25.9 µM [inhibitor, single point] | –
CC(C)CC(NC(=O)c1ccco1)C(=O)Nc1ccc2c(c1)OCCO2 (stereo not drawn) | inconclusive: 23.1 µM [activator, partial curve] | –
O=c1[nH]c2cc3c(cc2cc1CN(CCN1CCOCC1)C(=S)NCC1CCCO1)OCO3 (stereo not drawn) | inconclusive: 23.1 µM [inhibitor, partial curve] | –
O=C1NC(=O)N(Cc2ccccc2F)C1=O | – | inactive: 1.63%
O=C1c2ccccc2NC(c2ccc(-c3cccc(F)c3)o2)N1O (stereo not drawn) | inconclusive: 5.8 µM [activator, partial curve] | –
COc1ccc(-c2cc(N)n(S(=O)(=O)c3c(F)c(F)c(F)c(F)c3F)n2)cc1OC | active: 23.1 µM | –
CN1CCN(C(=O)c2cc3nc(-c4ccc(F)cc4)cc(C(F)(F)F)n3n2)CC1 | inconclusive: 9.2 µM [inhibitor, partial curve] | –
Cc1ccc(NC(=O)c2cc(S(=O)(=O)N3CCOCC3)c(Br)s2)cc1 | inconclusive: 16.4 µM [inhibitor, partial curve] | –
COc1cc(/C=C2\SC(=S)N(NC(=O)c3ccc(O)c(OC)c3)C2=O)ccc1O | inconclusive: 29.1 µM [activator, single point] | –
COc1ccc(C(=O)CSc2nccn2C)c(OC)c1 | inconclusive: 13 µM [activator, partial curve] | –
Cc1cccc(Nc2cnn(C34CC5CC(CC(CC(=O)O)(C5)C3)C4)c(=O)c2Cl)c1 | – | inactive: 15.8%
CN(C(=O)Cn1cc(C#N)c2ccccc21)c1ccccc1 | – | inactive: -0.739%
C[C@@H]1CN([C@@H](C)CO)C(=O)c2cccc(NC(=O)Nc3ccccc3)c2O[C@H]1CN(C)C(=O)Nc1cccc2ccccc12 | – | inactive: -25.8%
CCOc1ccc2cc(C#N)c(SCC(=O)OC)nc2c1 | inconclusive: 1.3 µM [activator, full curve] | –
CCN(CC(=O)Nc1ccc(NC(C)=O)cc1)C(=O)c1cccc(S(=O)(=O)N2CCc3ccccc3C2)c1 | – | inactive: -5.82%
Cc1ccc(Nc2nnc(SCC(=O)NC(Cc3c[nH]c4ccccc34)C(=O)O)s2)cc1 (stereo not drawn) | – | inactive: 17.7%
O=C(/C=C/c1nc2ccccc2s1)N1CCCCCC1 | inconclusive: 10.3 µM [activator, partial curve] | –

SMILES | Potency | activity change, negative = inhibition
CCOC(=O)Cc1csc(NC(=O)COc2ccc(C)c(C)c2)n1 | inconclusive: 20.6 µM [activator, partial curve] | –
c1ccc(CSc2nnc3c(n2)OC(c2ccco2)Nc2ccccc2-3)cc1 (stereo not drawn) | inconclusive: 14.1 µM [activator, single point] | –
CC(O)c1nc2ccccc2n1CC(=O)Nc1ccc2c(c1)OCCO2 (stereo not drawn) | inconclusive: 23.1 µM [activator, partial curve, poor fit] | –
COc1cc2c(cc1OC)CN(CC(=O)Nc1ccccc1C#N)CC2 | inconclusive: 23.1 µM [inhibitor, single point] | –
CCCN(CC(=O)Nc1ccc(Cl)cc1Cl)C(=O)/C=C/c1cc(OC)ccc1OC | inconclusive: 20.6 µM [inhibitor, partial curve] | –
Nc1ccc2oc(CCc3ccccc3)nc2c1 | inconclusive: 9.2 µM [activator, partial curve, poor fit] | –
O=C(c1ccc(-c2ccc(Cl)cc2Cl)o1)N1CCOCC1 | inconclusive: 9.2 µM [activator, partial curve] | –
CSCc1nnc(NC(=O)c2ccc(S(=O)(=O)N3CCCCC3C)cc2)o1 (stereo not drawn) | active: 20.6 µM | –
CCCn1nc(NC(=O)c2ccco2)c2cc3cc(C)ccc3nc21 | inconclusive: 25.9 µM [inhibitor, single point] | –
COc1ccccc1Nc1nc(N)nc(CSC(=S)N2CCCCC2)n1 | inconclusive: 16.4 µM [activator, partial curve] | –
Cn1cc(Cl)c(C(=O)Nc2nc3ccc(Cl)cc3s2)n1 | inconclusive: 8.2 µM [activator, partial curve] | –
Cc1ccccc1NC(=O)C(=O)NC(C)CCc1ccccc1 (stereo not drawn) | inconclusive: 20.6 µM [activator, single point] | –
COCCOC(=O)c1c(C)oc2ccc(OC(=O)c3c(OC)cccc3OC)cc12 | inconclusive: 14.6 µM [inhibitor, partial curve] | –
COc1ccc(S(=O)(=O)Nc2ccc(OCC(=O)O)cc2)c2ccccc12 | – | inactive: -14.5%
Cc1cccc(C(=O)O[C@H]2[C@H](Cc3ccccc3)NS(=O)(=O)[C@H]3CC4C=C[C@]23O4)c1 | – | inactive: 25.4%
Cc1cc(NNC(=O)Nc2cccc(Cl)c2)nc2c1c(C)nn2C | active: 0.73 µM | –
O=C(NCc1cccs1)c1cnc2ccccn2c1=O | inconclusive: 14.6 µM [activator, partial curve] | –
CN(C)c1ccc(CC(=O)c2nc3ccccc3s2)cc1 | inconclusive: 9.2 µM [activator, partial curve] | –
COc1ccc(C(=O)Nc2cc(OC)cc(OC)c2)cc1 | inconclusive: 10.3 µM [activator, partial curve] | –
COC(=O)c1ccc(COC(=O)CCC(=O)c2cccs2)cc1 | inconclusive: 20.6 µM [activator, single point] | –
COc1ccc(C(=O)c2oc3ccccc3c2NC(C)=O)cc1 | inconclusive: 0.103 µM [activator, full curve, poor fit] | –

From PubChem BioAssay AID504467 (National Center for Advancing Translational Sciences (NCATS), 2011)
